Experimental data reported in PMC13156314.
Substitutions are numbered along the chain they refer to. Names and notes keep the numbering of the source. Results are given in words; binding and its absence hold for the method and conditions named. For some assays here: Binding seen in cells or lysates may run through a third protein. Some binding calls cover weakened binding; strength is not graded here. For some assays here: Tags and fused reporters may be left off the sequences shown. One block for each binder: values may come before it.

Protein sequences, listed by entry. Tags and fused reporters are not part of them.
UniProt P19474: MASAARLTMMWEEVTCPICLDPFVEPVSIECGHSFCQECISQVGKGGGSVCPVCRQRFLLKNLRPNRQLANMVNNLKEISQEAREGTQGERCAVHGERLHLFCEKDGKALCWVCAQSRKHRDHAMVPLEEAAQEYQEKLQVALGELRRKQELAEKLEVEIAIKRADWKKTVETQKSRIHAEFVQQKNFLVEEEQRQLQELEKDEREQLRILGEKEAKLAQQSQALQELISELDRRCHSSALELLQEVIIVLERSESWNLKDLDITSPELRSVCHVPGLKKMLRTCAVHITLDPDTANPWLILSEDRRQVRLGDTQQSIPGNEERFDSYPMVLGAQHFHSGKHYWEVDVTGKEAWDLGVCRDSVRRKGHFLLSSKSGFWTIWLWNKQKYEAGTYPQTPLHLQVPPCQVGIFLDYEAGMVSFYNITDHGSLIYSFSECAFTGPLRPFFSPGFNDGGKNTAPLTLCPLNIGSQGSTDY

Tests used:
[1] = molecular target: TRIM29 (endogenous) (human (endogenous in SUNE1 and HK1)) (UniProt Q14134); experiment: native gel or EMSA; native-PAGE immunoblot (anti-TRIM29 or anti-Myc) of lysates of SUNE1, HK1 or HEK293T cells; with or without USP18 or TRIM21 overexpression
TRIM21-Flag (human) [2] = molecular target: TRIM21-Flag (human) (UniProt P19474); experiment: co-IP; tagged bait (anti-Flag or anti-Myc) from transfected SUNE1 or HEK293T lysates; co-transfected tagged or endogenous partner found by western blot
[3] = molecular target: TRIM21 (endogenous) (human (endogenous in SUNE1 and HK1)) (UniProt P19474); experiment: co-IP; endogenous proteins in SUNE1 and HK1 lysates; anti-USP18 or anti-TRIM21 antibody overnight at 4 °C, Protein A/G magnetic beads, western blot
[4] = molecular target: T1, USP18 (endogenous) (human (endogenous in SUNE1 and HK1)) (UniProt Q9UMW8); experiment: as above
T1 sequence: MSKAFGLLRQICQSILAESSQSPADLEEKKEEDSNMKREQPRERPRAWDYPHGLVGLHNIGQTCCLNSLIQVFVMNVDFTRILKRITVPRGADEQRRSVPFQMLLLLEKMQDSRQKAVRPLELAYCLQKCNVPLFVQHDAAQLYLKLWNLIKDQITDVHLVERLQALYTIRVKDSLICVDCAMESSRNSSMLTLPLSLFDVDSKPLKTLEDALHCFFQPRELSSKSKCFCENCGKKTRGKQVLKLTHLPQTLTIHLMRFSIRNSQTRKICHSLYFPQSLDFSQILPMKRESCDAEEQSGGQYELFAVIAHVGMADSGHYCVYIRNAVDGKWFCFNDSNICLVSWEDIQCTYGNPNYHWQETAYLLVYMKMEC

[5] = molecular target: TRIM29 (endogenous) (human (endogenous in SUNE1 and HK1)) (UniProt Q14134); experiment: cross-linking; cell lysates (SUNE1, HK1 or HEK293T) treated with 5 mM EGS or DSS for 15 min at RT, quenched with 40 mM Tris-HCl, western blot (anti-TRIM29 or anti-Myc); with or without USP18 or TRIM21 overexpression
TRIM21-YFP (human) = TRIM21-YFP (human) (UniProt P19474); experiment: FRET or BRET; acceptor (YFP) photobleaching in fixed HEK293T cells co-transfected with CFP and YFP fusions, 24 h after transfection; E_FRET = 1 − (F_prebleach/F_postbleach) of the donor; 10 cells
TRIM29-Myc (human) [6] = molecular target: T2, TRIM29-Myc (human) (UniProt Q14134); experiment: co-IP; anti-Myc IP from SUNE1 and HK1 cells transfected with TRIM29-HA and TRIM29-Myc, with or without USP18-Flag (or TRIM21 overexpression); blot anti-HA
T2 sequence: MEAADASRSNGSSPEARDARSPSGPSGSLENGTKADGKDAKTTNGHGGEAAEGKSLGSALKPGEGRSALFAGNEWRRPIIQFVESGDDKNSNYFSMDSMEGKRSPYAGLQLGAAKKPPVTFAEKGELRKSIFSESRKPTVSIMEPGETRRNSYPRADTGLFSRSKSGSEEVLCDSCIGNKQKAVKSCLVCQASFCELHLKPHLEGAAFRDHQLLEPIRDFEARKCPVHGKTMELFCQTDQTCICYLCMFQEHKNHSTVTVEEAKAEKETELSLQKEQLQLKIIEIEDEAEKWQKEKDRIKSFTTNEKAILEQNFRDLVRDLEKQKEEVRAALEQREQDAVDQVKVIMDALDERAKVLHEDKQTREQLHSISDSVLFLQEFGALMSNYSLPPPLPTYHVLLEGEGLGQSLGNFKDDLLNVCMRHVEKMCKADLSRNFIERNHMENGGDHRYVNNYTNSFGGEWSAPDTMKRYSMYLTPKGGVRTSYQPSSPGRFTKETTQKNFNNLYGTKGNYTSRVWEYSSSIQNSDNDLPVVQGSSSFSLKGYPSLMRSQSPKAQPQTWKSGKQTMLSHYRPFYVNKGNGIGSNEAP

TRIM29-Myc (human) [7] = molecular target: T2, TRIM29-Myc (human); experiment: native gel or EMSA; native-PAGE immunoblot (anti-TRIM29 or anti-Myc) of lysates of SUNE1, HK1 or HEK293T cells; with or without USP18 or TRIM21 overexpression
TRIM29-Myc (human) [8] = molecular target: T2, TRIM29-Myc (human); experiment: cross-linking; cell lysates (SUNE1, HK1 or HEK293T) treated with 5 mM EGS or DSS for 15 min at RT, quenched with 40 mM Tris-HCl, western blot (anti-TRIM29 or anti-Myc); with or without USP18 or TRIM21 overexpression
TRIM21-Flag (human) [9] = molecular target: TRIM21-Flag (human) (UniProt P19474); experiment: co-IP; anti-Flag IP from WT or USP18-KO SUNE1 and HK1 cells co-transfected with TRIM21-Flag and TRIM29-HA; blot anti-HA
TRIM29-Myc K561R (human) = TRIM29-Myc K561R (human) (UniProt Q14134); experiment: cross-linking; cell lysates (SUNE1, HK1 or HEK293T) treated with 5 mM EGS or DSS for 15 min at RT, quenched with 40 mM Tris-HCl, western blot (anti-TRIM29 or anti-Myc); with or without USP18 or TRIM21 overexpression

binding [1]: binds
binding (TRIM21-Flag (human) [2]): binds
binding [3]: binds
binding [4]: binds
binding [5]: binds
B1: TRIM29 (endogenous) (protein, UniProt Q14134 1-588)
chain: T2 sequence

binding (TRIM21-YFP (human)): binds
B2: TRIM29-CFP (protein, UniProt Q14134 1-588)
chain: T2 sequence

binding (TRIM29-Myc (human) [6]): binds
binding (TRIM29-Myc (human) [7]): binds
binding (TRIM29-Myc (human) [8]): binds
B3: TRIM29-Myc (protein, UniProt Q14134 1-588)
chain: T2 sequence

binding (TRIM21-Flag (human) [9]): binds
B4: TRIM29-HA (protein, UniProt Q14134 1-588)
chain: T2 sequence

binding (TRIM29-Myc K561R (human)): binds
B5: TRIM29-Myc K561R (protein, UniProt Q14134 1-588)
chain: T2 sequence with K561R
